Source: paper PMC13449084
Results are given in words; binding and its absence hold for the method and conditions named. Binding seen in cells or lysates may run through a third protein. Some binding calls cover weakened binding; strength is not graded here.

Target: T1, Parkin (mouse (endogenous in heart)) (UniProt Q9WVS6)
T1 sequence: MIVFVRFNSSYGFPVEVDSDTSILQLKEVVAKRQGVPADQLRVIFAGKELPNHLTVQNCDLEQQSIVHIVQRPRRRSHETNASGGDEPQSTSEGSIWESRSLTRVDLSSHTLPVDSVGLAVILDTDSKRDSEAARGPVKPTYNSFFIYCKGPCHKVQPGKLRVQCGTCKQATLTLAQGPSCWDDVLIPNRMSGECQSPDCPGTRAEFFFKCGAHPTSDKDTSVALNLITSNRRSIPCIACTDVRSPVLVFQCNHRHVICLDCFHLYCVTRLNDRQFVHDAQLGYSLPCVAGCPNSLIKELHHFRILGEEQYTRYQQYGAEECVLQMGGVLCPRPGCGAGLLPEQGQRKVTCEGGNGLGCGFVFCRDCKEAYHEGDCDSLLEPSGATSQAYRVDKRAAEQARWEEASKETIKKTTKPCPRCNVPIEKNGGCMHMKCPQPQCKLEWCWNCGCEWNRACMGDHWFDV
Assay: co-IP; myocardial whole-cell lysate (500 uL) incubated with 6-10 ug of antibody or IgG (control) at 4°C overnight, then protein A/G magnetic beads for 2 h; western blot; mouse model of DOX-induced myocardial damage

B1: Fibroblast growth factor 13 (protein, UniProt P70377 1-245)
chain: MAAAIASSLIRQKRQAREREKSNACKCVSSPSKGKTSCDKNKLNVFSRVKLFGSKKRRRRRPEPQLKGIVTKLYSRQGYHLQLQADGTIDGTKDEDSTYTLFNLIPVGLRVVAIQGVQTKLYLAMNSEGYLYTSEHFTPECKFKESVFENYYVTYSSMIYRQQQSGRGWYLGLNKEGEIMKGNHVKKNKPAAHFLPKPLKVAMYKEPSLHDLTEFSRSGSGTPTKSRSVSGVLNGGKSMSHNEST
With B1 the binding was “binds”.
